# Results reported in patent US6635642B1, “PARP inhibitors, pharmaceutical compositions comprising same, and methods of using same” (Guilford Pharmaceuticals Inc., priority 1997, dated 2003).
# What was measured:
# male Long-Evans rats [1] = test: Arterial blood gases and mean arterial blood pressure in the focal cerebral ischemia study; format: in vivo, rat; settings: for PaCO2 / PaO2 / pH (arterial): 30 min after MCA occlusion; for MABP Ischemia: average during occlusion; for MABP Steady State: just prior to occlusion
# male Long-Evans rats [2] = test: Laser Doppler microvascular blood flow in right parietal cortex during occlusion; format: in vivo, rat; settings: control 20.8±7.7%
compound,measurement,setting,value
"O=C1NCCc2c(OCCCCN3CCCCC3)cccc21 [DPQ, 3,4-dihydro-5-[4-(1-piperidinyl)-butoxy]-1(2H)-isoquinolinone]",PaCO2,male Long-Evans rats [1]; 5 mg/kg-treated group,38. mm Hg
same,PaO2,male Long-Evans rats [1]; 5 mg/kg-treated group,126 ± 20 mm Hg
same,pH (arterial),male Long-Evans rats [1]; 5 mg/kg-treated group,7.36
same,MABP Ischemia,male Long-Evans rats [1]; 5 mg/kg-treated group,91 ± 12 mm Hg
same,MABP Steady State,male Long-Evans rats [1]; 5 mg/kg-treated group,78 ± 5 mm Hg
same,PaCO2,male Long-Evans rats [1]; 10 mg/kg-treated group,39.3 mm Hg
same,PaO2,male Long-Evans rats [1]; 10 mg/kg-treated group,125 ± 16 mm Hg
same,pH (arterial),male Long-Evans rats [1]; 10 mg/kg-treated group,7.34
same,MABP Ischemia,male Long-Evans rats [1]; 10 mg/kg-treated group,90 ± 14 mm Hg
same,MABP Steady State,male Long-Evans rats [1]; 10 mg/kg-treated group,80 ± 9 mm Hg
same,PaCO2,male Long-Evans rats [1]; 20 mg/kg-treated group,41.3 mm Hg
same,PaO2,male Long-Evans rats [1]; 20 mg/kg-treated group,122 ± 14 mm Hg
same,pH (arterial),male Long-Evans rats [1]; 20 mg/kg-treated group,7.35
same,MABP Ischemia,male Long-Evans rats [1]; 20 mg/kg-treated group,91 ± 12 mm Hg
same,MABP Steady State,male Long-Evans rats [1]; 20 mg/kg-treated group,79 ± 10 mm Hg
same,PaCO2,male Long-Evans rats [1]; 40 mg/kg-treated group,39.5 mm Hg
same,PaO2,male Long-Evans rats [1]; 40 mg/kg-treated group,137 ± 17 mm Hg
same,pH (arterial),male Long-Evans rats [1]; 40 mg/kg-treated group,7.33
same,MABP Ischemia,male Long-Evans rats [1]; 40 mg/kg-treated group,88 ± 12 mm Hg
same,MABP Steady State,male Long-Evans rats [1]; 40 mg/kg-treated group,78 ± 4 mm Hg
same,"relative blood flow in the right parietal cortex, of the baseline",male Long-Evans rats [2]; 5 mg/kg-treated group,18.7±7.4%
same,"relative blood flow in the right parietal cortex, of the baseline",male Long-Evans rats [2]; 10 mg/kg-treated group,21.4±7.7%
same,"relative blood flow in the right parietal cortex, of the baseline",male Long-Evans rats [2]; 40 mg/kg-treated group,19.3±11.2%
